From PubChem BioAssay AID445 (National Center for Advancing Translational Sciences (NCATS), 2006)
This is one part of the list. The main result of the screen is listed elsewhere. These columns were measured beside it and carry no call. The list favours compounds with an active or inconclusive main result. Words in brackets tell the shape of the fitted curve; partial curves, single points and poor fits give uncertain potencies.

Test: IkB Signaling
Conditions: ABC-DLBCL IkBa-CBG/CBR dual luciferase ratio (green luciferase fused to IkBa over red control in OCI-Ly3 lymphoma cells), 4 h; measured here: control luc red channel unless noted
Method in brief: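 Luminescence ratio of IκBα-fused green versus native red beetle luciferase in OCI-Ly3 cells, 4 h post-doxycycline with compound; red signal alone, scaled from basal (0%) to zero light (-100%), flagged nonspecific or cytotoxic effects.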

Which AC50 does the source give for `COc1ccc(S(=O)(=O)N2Cc3ccccc3CC2C(=O)Nc2nccs2)cc1OC` (stereo not drawn) here?
Its AC50 is 5.01 µM [falling, partial curve].

For `O=C(Nc1ccc2c(c1)CCCN2C(=O)c1cccs1)c1ccccc1Cl`, which AC50 is on record?
The AC50 was 20 µM [falling, partial curve].

With `COc1cccc(C2=NOC(C(=O)NC3CCCCC3)C2)c1` (stereo not drawn) as the compound, how does the AC50 read?
Its AC50 is 20 µM [falling, single point].

With `Cc1cccc(OCc2nnc(SCn3nnc4ccccc4c3=O)o2)c1` as the compound, how does the AC50 read?
Its AC50 is 31.6 µM [falling, partial curve].

For `CC(=O)CSc1nnc2[nH]c(=O)cc(N)n12`, which AC50 is on record?
Its AC50 is 5.01 µM [rising, partial curve].

Which AC50 does the source give for `COc1cc(C2NC(=O)c3c(sc4c3CCN(C)C4)N2)cc(OC)c1OC` (stereo not drawn) here?
Its AC50 is 20 µM [falling, single point].

With `COc1ccc(Br)cc1CN1C(=O)c2ccccc2C1C(=O)NC1CCCCCC1` (stereo not drawn) as the compound, how does the AC50 read?
Its AC50 is 10 µM [falling, partial curve].

With `COc1cc(C2c3sc(=O)[nH]c3SC3C4CCC(C4)C23)ccc1O` (stereo not drawn) as the compound, how does the AC50 read?
The AC50 was 31.6 µM [falling, single point].

Which AC50 does the source give for `COC(=O)c1c(NC(=O)CCCOc2cccc(C)c2)sc2c1C(C(=O)OC)CC2` (stereo not drawn) here?
Its AC50 is 15.8 µM [falling, single point].

Which AC50 does the source give for `CCc1ccc(CN(Cc2cn[nH]c2-c2ccc(OC)cc2)C(=O)Nc2cc(Cl)ccc2OC)cc1` here?
The AC50 was 25.1 µM [falling, single point].

With `COC(=O)c1cc(=O)nc2sc3ccccc3n12` as the compound, how does the AC50 read?
The AC50 was 3.98 µM [rising, partial curve].

With `Cc1ccc(-n2ncc(C(=O)NCc3ccco3)c2C2CCN(C(=O)OC(C)(C)C)CC2)c(C)c1` as the compound, how does the AC50 read?
The AC50 was 25.1 µM [falling, single point].

With `Cc1ccc(-n2ncc3c(NC4CCCCCC4)ncnc32)cc1Cl` as the compound, how does the AC50 read?
The AC50 was 31.6 µM [falling, partial curve].

For `CCCCN(CCCNC(=O)c1cc(Nc2ccc(OC)c(OC)c2)nc2ccccc12)Cc1ccccc1`, which AC50 is on record?
The AC50 was 20 µM [falling, partial curve].

With `CCOC(=O)C1=C(C)N=C2SCCC(=O)N2C1c1ccc(OCc2ccccc2)cc1` (stereo not drawn) as the compound, how does the AC50 read?
Its AC50 is 15.8 µM [falling, partial curve].

Which AC50 does the source give for `O=C(Nc1ccc(OC(F)(F)F)cc1)c1cc2ccccn2n1` here?
The AC50 was 0.126 µM [rising, full curve].

With `O=c1nc2n(-c3ccccc3F)c3ccccc3cc-2c(=O)[nH]1` as the compound, how does the AC50 read?
Its AC50 is 1.26 µM [rising, partial curve].

Which AC50 does the source give for `CCOC(=O)c1c(NC(=O)c2ccc(S(=O)(=O)N(CC(C)C)CC(C)C)cc2)sc2c1CCN(C(=O)OCC)C2` here?
Its AC50 is 3.16 µM [falling, full curve, poor fit].

Which AC50 does the source give for `CCC(Sc1nc2ccccc2c(=O)n1CCc1ccc(OC)c(OC)c1)C(=O)N(CC)CC` (stereo not drawn) here?
The AC50 was 25.1 µM [falling, single point].

For `CCOC(=O)c1cc(NC(=O)CSCCO)ccc1Cl`, which AC50 is on record?
Its AC50 is 10 µM [falling, partial curve].

With `c1ccc(Nc2nn[nH]n2)cc1` as the compound, how does the AC50 read?
Its AC50 is 15.8 µM [falling, partial curve].

Which AC50 does the source give for `CCOC(=O)C1CCN(C(=O)c2ccc(-n3ccc4ccccc43)s2)CC1` here?
The AC50 was 0.794 µM [falling, full curve].

With `COc1ccc(Cn2ccn(Cc3cccc(OC)c3)c(=O)c2=O)cc1` as the compound, how does the AC50 read?
Its AC50 is 7.94 µM [falling, partial curve].

For `Cc1cccc(NC(=O)N2CC(=O)Nc3sc4c(c3C2c2ccccc2)CCCC4)c1C` (stereo not drawn), which AC50 is on record?
The AC50 was 25.1 µM [falling, single point].

For `CCOc1cc(CNC(=O)c2ccc3c(c2)NC(=O)C2CCCCN32)cc(OCC)c1OCC` (stereo not drawn), which AC50 is on record?
The AC50 was 20 µM [falling, partial curve, poor fit].

With `C[C@H](CCC(=O)O)[C@H]1CC[C@H]2[C@@H]3CC[C@@H]4C[C@H](O)CC[C@]4(C)[C@H]3CC[C@]12C` as the compound, how does the AC50 read?
Its AC50 is 15.8 µM [falling, partial curve].

Which AC50 does the source give for `O=C1OC(NC(=O)c2ccccc2)C(n2cc(CO)nn2)=C1Cl` (stereo not drawn) here?
The AC50 was 20 µM [rising, partial curve] [measured here: IkB-luc green channel].

With `CC(=O)c1cccc(NC(=O)C2CCN(S(=O)(=O)c3ccc4c(c3)oc(=O)n4C)CC2)c1` as the compound, how does the AC50 read?
Its AC50 is 31.6 µM [falling, partial curve].

For `O=C(CSCc1ccccc1Cl)N1CCN(c2ccc(Cl)cc2)CC1`, which AC50 is on record?
Its AC50 is 39.8 µM [falling, single point].

With `COc1cc(C2CC(=O)Oc3c2c(=O)n(C)c2ccccc32)ccc1O` (stereo not drawn) as the compound, how does the AC50 read?
Its AC50 is 20 µM [falling, single point].

For `c1ccc(-c2noc(-c3cccc4ccccc34)n2)cc1`, which AC50 is on record?
The AC50 was 39.8 µM [falling, single point].

Which AC50 does the source give for `O=C(COc1ccccc1)Nc1ccc2nc(SCCOc3ccccc3)sc2c1` here?
The AC50 was 1 µM [falling, partial curve].

With `CCc1ccccc1NC(=O)c1cnc(N2CCCCC2)c2ccccc12` as the compound, how does the AC50 read?
The AC50 was 39.8 µM [falling, single point].

With `COc1cc(C(=O)NCC(c2cccs2)S(=O)(=O)c2cccs2)cc(OC)c1OC` (stereo not drawn) as the compound, how does the AC50 read?
Its AC50 is 39.8 µM [falling, single point].

With `COc1ccc(-c2c3c(=O)n(C)c(=O)n(C)c3c3n2-c2ccccc2NC3c2ccco2)cc1` (stereo not drawn) as the compound, how does the AC50 read?
Its AC50 is 15.8 µM [falling, partial curve].

With `CCN1C(=O)c2ccccc2S(=O)c2ccc(C(=O)N3CCN(c4cc(Cl)ccc4C)CC3)cc21` (stereo not drawn) as the compound, how does the AC50 read?
Its AC50 is 10 µM [falling, partial curve].

Which AC50 does the source give for `Cc1ccccc1CN1CCC(CNC(=O)c2c(C)oc3ncnc(N4CCCCC4)c23)CC1` here?
The AC50 was 0.251 µM [rising, partial curve].

For `CCC(Sc1nc(-c2ccccc2F)nc2c1Cc1c(CO)cnc(C)c1O2)C(=O)Nc1cc(C)ccc1C` (stereo not drawn), which AC50 is on record?
Its AC50 is 1 µM [rising, full curve].

For `CCOc1ccc(CCNC(=O)C2=C(C)C(=O)OC23CCCCC3)cc1`, which AC50 is on record?
Its AC50 is 20 µM [falling, partial curve].

With `CN(Cc1ccccc1)C(=O)c1ccc2c(c1)N(Cc1ccccc1Cl)C(=O)c1ccccc1S2` as the compound, how does the AC50 read?
The AC50 was 10 µM [falling, partial curve].

With `COc1nnc(-c2ccc(N3CCCCC3)c(N)c2)c2ccccc12` as the compound, how does the AC50 read?
The AC50 was 20 µM [falling, partial curve].

With `CCOc1ccccc1C1C(C(=O)N2CCCCC2)=C(C)Nc2nc3ccccc3n21` (stereo not drawn) as the compound, how does the AC50 read?
Its AC50 is 25.1 µM [falling, partial curve].

With `CC(=O)c1cccc(-n2nnnc2SCC(=O)Nc2cccc(NC(=O)c3ccco3)c2)c1` as the compound, how does the AC50 read?
Its AC50 is 15.8 µM [falling, partial curve].

For `O=C(CSc1nc2ccccc2c(=O)n1Cc1ccco1)c1ccccc1`, which AC50 is on record?
Its AC50 is 12.6 µM [falling, partial curve].

For `O=C(NCC1CCN(Cc2cccc(Cl)c2)CC1)Nc1cc(Cl)ccc1Cl`, which AC50 is on record?
Its AC50 is 15.8 µM [falling, partial curve].

Which AC50 does the source give for `COc1ccc(N(C)C(=O)CCn2cnc3onc(-c4ccc(F)cc4)c3c2=O)c(OC)c1` here?
The AC50 was 10 µM [falling, partial curve].

Which AC50 does the source give for `CCCCCS(=O)(=O)c1oc(-c2cccs2)nc1S(=O)(=O)c1ccc(C)cc1` here?
Its AC50 is 12.6 µM [falling, partial curve].

With `Cc1cccnc1NCc1ccc(O)c2ncccc12` as the compound, how does the AC50 read?
The AC50 was 5.01 µM [rising, partial curve] [measured here: IkB-luc green channel].

With `CCCCN(CCCC)C(=O)c1cc2c(=O)n3cccc(C)c3nc2s1` as the compound, how does the AC50 read?
Its AC50 is 39.8 µM [falling, single point].

For `COc1ccc(S(=O)(=O)Nc2ccc(C(F)(F)F)cc2)cc1OC`, which AC50 is on record?
The AC50 was 39.8 µM [falling, single point].

Which AC50 does the source give for `COc1ccc(C2CC(=O)N(CC(=O)Nc3cc(C)ccc3C)c3ccccc3S2)cc1` (stereo not drawn) here?
The AC50 was 31.6 µM [falling, single point].

With `Brc1ccc2ncnc(NCc3ccco3)c2c1` as the compound, how does the AC50 read?
Its AC50 is 1.58 µM [falling, full curve, poor fit].

For `Cc1cccc(OCC(=O)N(Cc2cccs2)c2ccc(Cl)cc2)c1C`, which AC50 is on record?
The AC50 was 5.01 µM [falling, partial curve].

Which AC50 does the source give for `O=C(Cn1c(C(=O)NCc2ccco2)cc2sccc21)c1ccccc1` here?
Its AC50 is 31.6 µM [falling, partial curve].

For `O=C1c2oc3ccccc3c(=O)c2C(c2ccccc2)N1Cc1ccc2c(c1)OCO2` (stereo not drawn), which AC50 is on record?
The AC50 was 39.8 µM [rising, partial curve, poor fit].

Which AC50 does the source give for `CN1C(=O)c2ccccc2Sc2ccc(NC(=O)c3ccccc3F)cc21` here?
The AC50 was 31.6 µM [falling, single point].

With `CCOC(=O)c1cccc(NC(=O)[C@@H](c2ccccc2)N2Cc3ccccc3C2=O)c1` as the compound, how does the AC50 read?
The AC50 was 31.6 µM [falling, single point].

Which AC50 does the source give for `CCN1C(=O)c2ccccc2Sc2ccc(C(=O)NCCCN(CC(C)C)CC(C)C)cc21` here?
The AC50 was 39.8 µM [falling, partial curve].

Which AC50 does the source give for `O=S(=O)(Nc1nc2ccccc2nc1Nc1ccc2c(c1)OCCO2)c1cccs1` here?
The AC50 was 3.16 µM [falling, partial curve].

With `COc1cccc(CNC(=O)c2cc3c(s2)-c2ccccc2OC3)c1` as the compound, how does the AC50 read?
The AC50 was 7.94 µM [falling, partial curve].

With `COc1ccc(-n2c(=O)c3c4c(sc3n(Cc3ccc(F)cc3)c2=O)CCCC4)c(OC)c1` as the compound, how does the AC50 read?
The AC50 was 10 µM [falling, partial curve].

With `COc1ccccc1NC(=O)C1=C(C)Nc2ncnn2C1c1ccccc1C(=O)O` (stereo not drawn) as the compound, how does the AC50 read?
The AC50 was 25.1 µM [falling, single point].

For `CC(C)COC(=O)N(C)c1ccc(C(O)(C(F)(F)F)C(F)(F)F)cc1`, which AC50 is on record?
The AC50 was 25.1 µM [falling, single point].
